# Measurements from the supplement of paper PMC8728848.
# This is one part of the list.
# Legend:
# Assay in all cases: glycan array binding signal (z-score within array); higher = stronger binding
# Conditions in all cases: glycan notation: IUPAC condensed, linker removed
# [1] = molecular target: Fuc(a1-2)[Gal(a1-3)]Gal(b1-4)GlcNAc(b1-2)Man(a1-3)[Fuc(a1-2)[Gal(a1-3)]Gal(b1-4)GlcNAc(b1-2)Man(a1-6)]Man(b1-4)GlcNAc(b1-4)[Fuc(a1-6)]GlcNAc
# In short: (§1)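 The binding signal is a Z-score computed within each array and averaged over linkers. Arrays of the same protein sequence at different concentrations or buffers were also averaged together. Data originate from 3228 arrays in the Consortium for Functional Glycomics database, kept only where the protein sequence was available.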
# [2] = molecular target: Fuc(a1-2)[Gal(a1-3)]Gal(b1-4)GlcNAc(b1-3)GalNAc
# In short: as §1
# [3] = molecular target: Fuc(a1-2)[Gal(a1-3)]Gal(b1-4)GlcNAc(b1-3)[Fuc(a1-2)[Gal(a1-3)]Gal(b1-4)GlcNAc(b1-6)]GalNAc
# In short: as §1
# [4] = molecular target: Fuc(a1-2)[Gal(a1-3)]Gal(b1-4)GlcNAc(b1-6)GalNAc
# In short: as §1
# [5] = molecular target: Fuc(a1-2)[Gal(a1-3)]Gal(b1-4)[Fuc(a1-3)]Glc
# In short: as §1
# [6] = molecular target: Fuc(a1-2)[Gal(a1-3)]Gal(b1-4)[Fuc(a1-3)]GlcNAc
# In short: as §1
# [7] = molecular target: Fuc(a1-2)[Gal(a1-3)]Gal(b1-4)[Fuc(a1-3)]GlcNAc(b1-3)GalNAc
# In short: as §1
# [8] = molecular target: Fuc(a1-2)[Gal(a1-4)]Gal(b1-4)GlcNAc
# In short: as §1
# [9] = molecular target: Fuc(a1-2)[GalNAc(a1-3)]Gal
# In short: as §1
# [10] = molecular target: Fuc(a1-2)[GalNAc(a1-3)]Gal(b1-3)GalNAc(a1-3)[Fuc(a1-2)]Gal(b1-4)GlcNAc
# In short: as §1
# [11] = molecular target: Fuc(a1-2)[GalNAc(a1-3)]Gal(b1-3)GalNAc(b1-3)Gal(a1-4)Gal(b1-4)Glc
# In short: as §1
# [12] = molecular target: Fuc(a1-2)[GalNAc(a1-3)]Gal(b1-3)GlcNAc
# In short: as §1
# [13] = molecular target: Fuc(a1-2)[GalNAc(a1-3)]Gal(b1-3)GlcNAc(b1-2)Man(a1-3)[Fuc(a1-2)[GalNAc(a1-3)]Gal(b1-3)GlcNAc(b1-2)Man(a1-6)]Man(b1-4)GlcNAc(b1-4)GlcNAc
# In short: as §1
# [14] = molecular target: Fuc(a1-2)[GalNAc(a1-3)]Gal(b1-3)GlcNAc(b1-2)Man(a1-3)[Fuc(a1-2)[GalNAc(a1-3)]Gal(b1-3)GlcNAc(b1-2)Man(a1-6)]Man(b1-4)GlcNAc(b1-4)[Fuc(a1-6)]GlcNAc
# In short: as §1
# [15] = molecular target: Fuc(a1-2)[GalNAc(a1-3)]Gal(b1-3)GlcNAc(b1-3)GalNAc
# In short: as §1
# [16] = molecular target: Fuc(a1-2)[GalNAc(a1-3)]Gal(b1-3)GlcNAc(b1-6)GalNAc
# In short: as §1
# [17] = molecular target: Fuc(a1-2)[GalNAc(a1-3)]Gal(b1-4)Glc
# In short: as §1
# [18] = molecular target: Fuc(a1-2)[GalNAc(a1-3)]Gal(b1-4)GlcNAc
# In short: as §1
# [19] = molecular target: Fuc(a1-2)[GalNAc(a1-3)]Gal(b1-4)GlcNAc(b1-2)Man
# In short: as §1
# [20] = molecular target: Fuc(a1-2)[GalNAc(a1-3)]Gal(b1-4)GlcNAc(b1-2)Man(a1-3)[Fuc(a1-2)[GalNAc(a1-3)]Gal(b1-4)GlcNAc(b1-2)Man(a1-6)]Man(b1-4)GlcNAc(b1-4)GlcNAc
# In short: as §1
# [21] = molecular target: Fuc(a1-2)[GalNAc(a1-3)]Gal(b1-4)GlcNAc(b1-2)Man(a1-3)[Fuc(a1-2)[GalNAc(a1-3)]Gal(b1-4)GlcNAc(b1-2)Man(a1-6)]Man(b1-4)GlcNAc(b1-4)[Fuc(a1-6)]GlcNAc
# In short: as §1
# [22] = molecular target: Fuc(a1-2)[GalNAc(a1-3)]Gal(b1-4)GlcNAc(b1-3)Gal(b1-4)GlcNAc
# In short: as §1
# [23] = molecular target: Fuc(a1-2)[GalNAc(a1-3)]Gal(b1-4)GlcNAc(b1-3)Gal(b1-4)GlcNAc(b1-3)Gal(b1-4)GlcNAc
# In short: as §1
# [24] = molecular target: Fuc(a1-2)[GalNAc(a1-3)]Gal(b1-4)GlcNAc(b1-3)GalNAc
# In short: as §1
# [25] = molecular target: Fuc(a1-2)[GalNAc(a1-3)]Gal(b1-4)GlcNAc(b1-3)[Fuc(a1-2)[GalNAc(a1-3)]Gal(b1-4)GlcNAc(b1-6)]GalNAc
# In short: as §1
# [26] = molecular target: Fuc(a1-2)[GalNAc(a1-3)]Gal(b1-4)GlcNAc(b1-6)GalNAc
# In short: as §1
# [27] = molecular target: Fuc(a1-2)[GalNAc(a1-3)]Gal(b1-4)[Fuc(a1-3)]GlcNAc
# In short: as §1
# [28] = molecular target: Fuc(a1-2)[GalNAc(a1-3)]Gal(b1-4)[Fuc(a1-3)]GlcNAc(b1-3)GalNAc
# In short: as §1
# [29] = molecular target: Fuc(a1-2)[GalNAc(a1-4)]Gal(b1-4)GlcNAc
# In short: as §1
# [30] = molecular target: Fuc(a1-2)[GalNAc(b1-3)]Gal
# In short: as §1
# [31] = molecular target: Fuc(a1-3)GlcNAc
# In short: as §1
# [32] = molecular target: Fuc(a1-3)[Gal(b1-4)]Glc6S
# In short: as §1
# [33] = molecular target: Fuc(a1-3)[Gal(b1-4)]GlcNAc
# In short: as §1
# [34] = molecular target: Fuc(a1-3)[Gal(b1-4)]GlcNAc(b1-2)Man
# In short: as §1
# [35] = molecular target: Fuc(a1-3)[Gal(b1-4)]GlcNAc(b1-2)Man(a1-3)[Fuc(a1-3)[Gal(b1-4)]GlcNAc(b1-2)Man(a1-6)]Man(b1-4)GlcNAc(b1-4)GlcNAc
# In short: as §1
# [36] = molecular target: Fuc(a1-3)[Gal(b1-4)]GlcNAc(b1-2)Man(a1-3)[Fuc(a1-3)[Gal(b1-4)]GlcNAc(b1-2)Man(a1-6)]Man(b1-4)GlcNAc(b1-4)[Fuc(a1-6)]GlcNAc
# In short: as §1
# [37] = molecular target: Fuc(a1-3)[Gal(b1-4)]GlcNAc(b1-3)Gal(b1-3)[Fuc(a1-4)]GlcNAc
# In short: as §1
# [38] = molecular target: Fuc(a1-3)[Gal(b1-4)]GlcNAc(b1-3)Gal(b1-4)[Fuc(a1-3)]GlcNAc
# In short: as §1
# [39] = molecular target: Fuc(a1-3)[Gal(b1-4)]GlcNAc(b1-3)Gal(b1-4)[Fuc(a1-3)]GlcNAc(b1-3)Gal(b1-4)[Fuc(a1-3)]GlcNAc
# In short: as §1
# [40] = molecular target: Fuc(a1-3)[Gal(b1-4)]GlcNAc(b1-3)GalNAc
# In short: as §1
# [41] = molecular target: Fuc(a1-3)[Gal(b1-4)]GlcNAc(b1-6)GalNAc
# In short: as §1
# [42] = molecular target: Fuc(a1-3)[Gal(b1-4)]GlcNAc(b1-6)[Gal(b1-3)GlcNAc(b1-3)]Gal(b1-4)Glc
# In short: as §1
# [43] = molecular target: Fuc(a1-3)[Gal(b1-4)]GlcNAc6S
# In short: as §1
# [44] = molecular target: Fuc(a1-3)[Gal3S(b1-4)]Glc
# In short: as §1
# [45] = molecular target: Fuc(a1-3)[Gal3S(b1-4)]GlcNAc
# In short: as §1
binder,measurement,setting,value
Aap lectin (Staphylococcus epidermidis) (protein) VNLNYSSPFMSLLSMPADSSSNNTKNTIDIPPTTVKGRDNYDFYGRVDIESNPTDLNATNLTRYNYGQPPGTTTAGAVQFKNQVSFDKDFDFNIRVANNRQSNTTGADGWGFMFSKKDGDDFLKNGGILREKGTPSAAGFRIDTGYYNNDPLDKIQKQAGQGYRGYGTFVKNDSQGNTSKVGSGTPSTDFLNYADNTTNDLDGKFHGQKLNNVNLKYNASNQTFTATYAGKTWTATLSELGLSPTDSYNFLVTSS,glycan array binding signal (z-score),[1],1.01
same,glycan array binding signal (z-score),[2],0.329
same,glycan array binding signal (z-score),[3],2.98
same,glycan array binding signal (z-score),[4],-0.267
same,glycan array binding signal (z-score),[5],-0.864
same,glycan array binding signal (z-score),[6],0.74
same,glycan array binding signal (z-score),[7],0.37
same,glycan array binding signal (z-score),[8],-0.34
same,glycan array binding signal (z-score),[9],-0.692
same,glycan array binding signal (z-score),[10],0.928
same,glycan array binding signal (z-score),[11],-0.573
same,glycan array binding signal (z-score),[12],-0.846
same,glycan array binding signal (z-score),[13],-0.562
same,glycan array binding signal (z-score),[14],-0.893
same,glycan array binding signal (z-score),[15],-0.395
same,glycan array binding signal (z-score),[16],1.3
same,glycan array binding signal (z-score),[17],-0.043
same,glycan array binding signal (z-score),[18],-0.868
same,glycan array binding signal (z-score),[19],-0.759
same,glycan array binding signal (z-score),[20],-0.574
same,glycan array binding signal (z-score),[21],-0.849
same,glycan array binding signal (z-score),[22],-0.888
same,glycan array binding signal (z-score),[23],0.553
same,glycan array binding signal (z-score),[24],0.8
same,glycan array binding signal (z-score),[25],0.427
same,glycan array binding signal (z-score),[26],-0.657
same,glycan array binding signal (z-score),[27],1.53
same,glycan array binding signal (z-score),[28],0.814
same,glycan array binding signal (z-score),[29],0.219
same,glycan array binding signal (z-score),[30],-0.891
same,glycan array binding signal (z-score),[31],-0.693
same,glycan array binding signal (z-score),[32],-0.16
same,glycan array binding signal (z-score),[33],0.297
same,glycan array binding signal (z-score),[34],-0.955
same,glycan array binding signal (z-score),[35],2.08
same,glycan array binding signal (z-score),[36],1.21
same,glycan array binding signal (z-score),[37],-0.83
same,glycan array binding signal (z-score),[38],1.81
same,glycan array binding signal (z-score),[39],0.476
same,glycan array binding signal (z-score),[40],1.45
same,glycan array binding signal (z-score),[41],-0.643
same,glycan array binding signal (z-score),[42],2.12
same,glycan array binding signal (z-score),[43],-0.113
same,glycan array binding signal (z-score),[44],1.63
same,glycan array binding signal (z-score),[45],2.12

# Three neighbouring entries out of the list so far:
binder,measurement,setting,value
Aap lectin (Staphylococcus epidermidis) (protein) VNLNYSSPFMSLLSMPADSSSNNTKNTIDIPPTTVKGRDNYDFYGRVDIESNPTDLNATNLTRYNYGQPPGTTTAGAVQFKNQVSFDKDFDFNIRVANNRQSNTTGADGWGFMFSKKDGDDFLKNGGILREKGTPSAAGFRIDTGYYNNDPLDKIQKQAGQGYRGYGTFVKNDSQGNTSKVGSGTPSTDFLNYADNTTNDLDGKFHGQKLNNVNLKYNASNQTFTATYAGKTWTATLSELGLSPTDSYNFLVTSS,glycan array binding signal (z-score),[17],-0.043
same,glycan array binding signal (z-score),[18],-0.868
same,glycan array binding signal (z-score),[19],-0.759
